These results are taken from patent US20240109915A1, “NOVEL ACC INHIBITORS” (Pfizer Inc., priority 2022, published 2024).

In this experiment the target is recombinant human ACC1 (rhACC1) (Homo sapiens (Human), UniProt Q13085). Nature of the experiment: Transcreener ADP detection FP assay, direct inhibition of rhACC1. Conditions: read-out: Transcreener assay rhACC1 IC50; Geomean IC50, n ≥ 2 unless * then n = 1; 50 μM ATP, 30 μM acetyl-CoA. On the procedure:
The direct inhibition of ACC1 for the compounds of the present invention was determined using preparations of recombinant human ACC1 (rhACC1) (SEQ ID NO. 1)
Two liters of SF9 cells, infected with recombinant baculovirus containing full length human ACC1 cDNA, were suspended in ice-cold lysis buffer (25 mM Tris, pH 7.5; 150 mM NaCl; 10% glycerol; 5 mM imidazole (EMD Bioscience; Gibbstown, NJ); 2 mM TCEP (BioVectra; Charlottetown, Canada); Benzonase nuclease (10000 U/100 g cell paste; Novagen; Madison, WI); EDTA-free protease inhibitor cocktail (1 tab/50 ml; Roche Diagnostics; Mannheim, Germany). Cells were lysed by 3 cycles of freeze-thaw and centrifuged at 40,000×g for 40 minutes (4° C.). Supernatant was directly loaded onto a HisTrap FF crude column (GE Healthcare; Piscataway, NJ) and eluted with an imidazole gradient up to 0.5 M over 20 column volumes (CV). […]
Measurement of rhACC1 Inhibition rhACC1 was assayed in a Corning #3820 (Corning, Tewksbury, MA) 384-well plate using the Transcreener ADP detection FP assay kit (Bellbrook Labs, Madison, Wisconsin) using the manufacturer's recommended conditions for a 50 μM ATP reaction. […] The data was acquired on an Envision Fluorescence reader (PerkinElmer) using a 620 excitation Cy5 FP general dual mirror, 620 excitation Cy5 FP filter, 688 emission (S) and a 688 (P) emission filter.

Each structure is given as a SMILES string. The match of structure and compound is tentative.

The IC50 is the concentration at which inhibition is half-maximal.

Take `Cc1n[nH]c2c(Cl)cc(C(=O)N3CCC4(CC3)CC(=O)c3nc(C(C)(C)C)sc3C4)cc12`: the IC50 was 23.3 nM.
